Measured values: paper PMC6339918
No constants are given. Whether binding was seen depends on the method and setting. In cells and extracts the contact can be indirect. Some entries that bind do so weakly or less than the wild type.

Chains of the proteins cited; added tags and fusions are not shown. Lines headed by an entry give the natural chain unless they say otherwise; changes in a name come on top. A line that says so, or that is headed by a name, gives the form on record, which may keep a tag or linker. Residues count along the entry.
UniProt P20963: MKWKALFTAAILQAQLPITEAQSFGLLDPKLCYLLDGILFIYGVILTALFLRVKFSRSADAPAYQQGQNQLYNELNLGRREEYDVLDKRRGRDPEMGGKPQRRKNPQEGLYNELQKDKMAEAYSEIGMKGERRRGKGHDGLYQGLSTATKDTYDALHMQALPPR
CCR7-YFP2 (P32248, residues 25-378): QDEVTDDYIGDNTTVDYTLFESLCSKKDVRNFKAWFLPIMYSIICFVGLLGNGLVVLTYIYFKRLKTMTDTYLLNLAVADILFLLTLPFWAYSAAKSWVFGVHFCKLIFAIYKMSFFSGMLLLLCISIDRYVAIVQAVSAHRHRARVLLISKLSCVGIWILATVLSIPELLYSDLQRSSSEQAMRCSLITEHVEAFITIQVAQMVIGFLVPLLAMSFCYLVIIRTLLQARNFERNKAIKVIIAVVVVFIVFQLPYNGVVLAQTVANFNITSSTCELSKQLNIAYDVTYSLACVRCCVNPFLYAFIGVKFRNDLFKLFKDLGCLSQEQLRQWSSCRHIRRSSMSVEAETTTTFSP
CCR7-Y155F-YFP2 (P32248, form named): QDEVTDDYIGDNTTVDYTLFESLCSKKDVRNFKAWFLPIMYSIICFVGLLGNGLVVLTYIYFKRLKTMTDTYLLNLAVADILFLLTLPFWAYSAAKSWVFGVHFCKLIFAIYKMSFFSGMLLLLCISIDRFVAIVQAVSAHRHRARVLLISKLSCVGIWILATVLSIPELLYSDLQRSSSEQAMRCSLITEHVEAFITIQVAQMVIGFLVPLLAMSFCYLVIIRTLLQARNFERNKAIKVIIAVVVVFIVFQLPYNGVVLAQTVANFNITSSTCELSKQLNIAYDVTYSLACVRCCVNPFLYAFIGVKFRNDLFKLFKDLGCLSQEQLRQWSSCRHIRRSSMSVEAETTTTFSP
CCR7-A315G fused to YFP2 (P32248, form named): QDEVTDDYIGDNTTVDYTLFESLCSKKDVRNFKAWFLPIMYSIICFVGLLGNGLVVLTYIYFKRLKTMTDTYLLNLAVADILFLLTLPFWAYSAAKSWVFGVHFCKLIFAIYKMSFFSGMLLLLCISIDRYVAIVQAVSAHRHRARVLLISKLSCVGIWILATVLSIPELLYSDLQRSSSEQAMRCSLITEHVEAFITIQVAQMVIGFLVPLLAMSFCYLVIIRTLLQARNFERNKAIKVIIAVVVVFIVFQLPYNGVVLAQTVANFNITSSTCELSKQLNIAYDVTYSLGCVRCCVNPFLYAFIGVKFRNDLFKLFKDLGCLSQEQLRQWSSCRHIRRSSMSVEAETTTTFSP
CCR7-V317I fused to YFP2 (P32248, form named): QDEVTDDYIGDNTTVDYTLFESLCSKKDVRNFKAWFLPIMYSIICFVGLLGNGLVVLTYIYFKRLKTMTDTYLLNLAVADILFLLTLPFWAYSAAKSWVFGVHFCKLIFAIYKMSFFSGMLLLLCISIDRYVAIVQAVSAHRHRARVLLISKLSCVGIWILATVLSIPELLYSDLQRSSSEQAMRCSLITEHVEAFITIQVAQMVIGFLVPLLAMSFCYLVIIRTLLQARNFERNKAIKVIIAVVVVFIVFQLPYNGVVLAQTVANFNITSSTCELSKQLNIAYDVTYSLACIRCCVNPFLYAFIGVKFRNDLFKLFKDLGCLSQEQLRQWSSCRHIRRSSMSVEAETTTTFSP
UniProt P43403: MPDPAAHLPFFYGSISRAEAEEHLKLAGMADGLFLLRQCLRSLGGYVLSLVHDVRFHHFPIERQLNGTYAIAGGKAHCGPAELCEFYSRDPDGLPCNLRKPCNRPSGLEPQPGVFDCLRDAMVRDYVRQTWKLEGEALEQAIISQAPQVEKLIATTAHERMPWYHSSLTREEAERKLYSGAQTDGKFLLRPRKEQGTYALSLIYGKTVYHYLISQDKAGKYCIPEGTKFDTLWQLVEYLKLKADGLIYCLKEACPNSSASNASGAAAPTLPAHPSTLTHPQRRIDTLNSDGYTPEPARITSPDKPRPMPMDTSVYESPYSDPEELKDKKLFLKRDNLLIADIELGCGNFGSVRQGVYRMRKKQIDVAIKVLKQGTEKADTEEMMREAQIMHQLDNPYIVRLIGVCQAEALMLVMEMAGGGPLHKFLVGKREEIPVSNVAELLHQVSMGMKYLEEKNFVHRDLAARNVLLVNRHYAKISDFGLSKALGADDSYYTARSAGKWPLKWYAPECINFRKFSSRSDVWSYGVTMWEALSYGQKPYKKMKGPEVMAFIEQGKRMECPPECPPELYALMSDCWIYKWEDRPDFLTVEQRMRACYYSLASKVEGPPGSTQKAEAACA

How the values were obtained:
[1] = target: CD3ζ (endogenous, human PBLs) (human (endogenous in primary PBLs)) (UniProt P20963); test: proximity ligation; endogenous proteins in primary human PBLs on poly-L-lysine coated coverslips, unstimulated or stimulated with 0.5 μg/ml CCL19 or CCL21, fixed in 4% formaldehyde, permeabilized, Duolink PLA, signals counted in ImageJ
[2] = target: CCR7 (endogenous, human PBLs) (human (endogenous in primary PBLs)) (UniProt P32248); test: as above
CCR7-YFP2 [3] = target: CCR7-YFP2 (UniProt P32248); test: split reporter; YFP BiFC in mouse embryonic fibroblasts from wild-type or β-arrestin 1 and 2 double deficient mice, transiently transfected, chemokine stimulated
CCR7-Y155F-YFP2 = CCR7-Y155F-YFP2 (UniProt P32248); test: split reporter; YFP BiFC in HEK293 cells transiently transfected 1:1 with splitYFP1 and splitYFP2 constructs, stimulated or not with 0.5 μg/ml CCL19 or CCL21 (30 min or 1 h), some cells pre-treated with PTx (100 ng/ml); fixed; flow cytometry and confocal microscopy
CCR7-A315G fused to YFP2 = CCR7-A315G fused to YFP2 (UniProt P32248); test: as above
CCR7-YFP2 [4] = target: CCR7-YFP2 (UniProt P32248); test: as above
CCR7-V317I fused to YFP2 = CCR7-V317I fused to YFP2 (UniProt P32248); test: as above
[5] = target: ZAP70 (endogenous, human PBLs) (human (endogenous in primary PBLs)) (UniProt P43403); test: proximity ligation; endogenous proteins in primary human PBLs on poly-L-lysine coated coverslips, unstimulated or stimulated with 0.5 μg/ml CCL19 or CCL21, fixed in 4% formaldehyde, permeabilized, Duolink PLA, signals counted in ImageJ
ZAP70-YFP1 (human) = ZAP70-YFP1 (human) (UniProt P43403); test: split reporter; YFP BiFC in HEK293 cells stably expressing CCR7-HA, transiently transfected with YFP1 and YFP2 constructs, stimulated or not with 0.5 μg/ml CCL19 or CCL21 for 1 h; flow cytometry and confocal microscopy

“CCR7 (endogenous, human PBLs) (from UniProt P32248 25-378) (receptor)” was tested, and the binding [1] was “binds”.

“ZAP70 (endogenous, human PBLs) (from UniProt P43403 1-619) (enzyme)” was tested, and the binding [2] was “binds”.

In the case of “ZAP70-YFP1 (from UniProt P43403 1-619) (enzyme)”, the binding (CCR7-YFP2 [3]) is reported as “binds”, the binding (CCR7-Y155F-YFP2) is reported as “binds” and the binding (CCR7-A315G fused to YFP2) is reported as “binds”. For the same molecule, the binding (CCR7-YFP2 [4]) was “binds” and the binding (CCR7-V317I fused to YFP2) was “binds”.

B1: Vav1 (endogenous, human PBLs) (protein, UniProt P15498 1-845)
chain: MELWRQCTHWLIQCRVLPPSHRVTWDGAQVCELAQALRDGVLLCQLLNNLLPHAINLREVNLRPQMSQFLCLKNIRTFLSTCCEKFGLKRSELFEAFDLFDVQDFGKVIYTLSALSWTPIAQNRGIMPFPTEEESVGDEDIYSGLSDQIDDTVEEDEDLYDCVENEEAEGDEIYEDLMRSEPVSMPPKMTEYDKRCCCLREIQQTEEKYTDTLGSIQQHFLKPLQRFLKPQDIEIIFINIEDLLRVHTHFLKEMKEALGTPGAANLYQVFIKYKERFLVYGRYCSQVESASKHLDRVAAAREDVQMKLEECSQRANNGRFTLRDLLMVPMQRVLKYHLLLQELVKHTQEAMEKENLRLALDAMRDLAQCVNEVKRDNETLRQITNFQLSIENLDQSLAHYGRPKIDGELKITSVERRSKMDRYAFLLDKALLICKRRGDSYDLKDFVNLHSFQVRDDSSGDRDNKKWSHMFLLIEDQGAQGYELFFKTRELKKKWMEQFEMAISNIYPENATANGHDFQMFSFEETTSCKACQMLLRGTFYQGYRCHRCRASAHKECLGRVPPCGRHGQDFPGTMKKDKLHRRAQDKKRNELGLPKMEVFQEYYGLPPPPGAIGPFLRLNPGDIVELTKAEAEQNWWEGRNTSTNEIGWFPCNRVKPYVHGPPQDLSVHLWYAGPMERAGAESILANRSDGTFLVRQRVKDAAEFAISIKYNVEVKHIKIMTAEGLYRITEKKAFRGLTELVEFYQQNSLKDCFKSLDTTLQFPFKEPEKRTISRPAVGSTKYFGTAKARYDFCARDRSELSLKEGDIIKILNKKGQQGWWRGEIYGRVGWFPANYVEEDYSEYC
With B1 the binding [5] was “binds”.

B2: Vav1-YFP2 (protein, UniProt P15498 1-845)
chain: B1 chain
B2 was tested, and the binding (ZAP70-YFP1 (human)) was “binds”.
